Measurements taken from article PMC5997682.
These are yes or no findings as the source states them, for the method shown. Binding seen in cells or lysates may run through a third protein. A yes stands for co-enrichment or nearness to the bait. Other partners may have been found.

Amino acid sequences for entries named in this document (tags omitted).
UniProt Q05397: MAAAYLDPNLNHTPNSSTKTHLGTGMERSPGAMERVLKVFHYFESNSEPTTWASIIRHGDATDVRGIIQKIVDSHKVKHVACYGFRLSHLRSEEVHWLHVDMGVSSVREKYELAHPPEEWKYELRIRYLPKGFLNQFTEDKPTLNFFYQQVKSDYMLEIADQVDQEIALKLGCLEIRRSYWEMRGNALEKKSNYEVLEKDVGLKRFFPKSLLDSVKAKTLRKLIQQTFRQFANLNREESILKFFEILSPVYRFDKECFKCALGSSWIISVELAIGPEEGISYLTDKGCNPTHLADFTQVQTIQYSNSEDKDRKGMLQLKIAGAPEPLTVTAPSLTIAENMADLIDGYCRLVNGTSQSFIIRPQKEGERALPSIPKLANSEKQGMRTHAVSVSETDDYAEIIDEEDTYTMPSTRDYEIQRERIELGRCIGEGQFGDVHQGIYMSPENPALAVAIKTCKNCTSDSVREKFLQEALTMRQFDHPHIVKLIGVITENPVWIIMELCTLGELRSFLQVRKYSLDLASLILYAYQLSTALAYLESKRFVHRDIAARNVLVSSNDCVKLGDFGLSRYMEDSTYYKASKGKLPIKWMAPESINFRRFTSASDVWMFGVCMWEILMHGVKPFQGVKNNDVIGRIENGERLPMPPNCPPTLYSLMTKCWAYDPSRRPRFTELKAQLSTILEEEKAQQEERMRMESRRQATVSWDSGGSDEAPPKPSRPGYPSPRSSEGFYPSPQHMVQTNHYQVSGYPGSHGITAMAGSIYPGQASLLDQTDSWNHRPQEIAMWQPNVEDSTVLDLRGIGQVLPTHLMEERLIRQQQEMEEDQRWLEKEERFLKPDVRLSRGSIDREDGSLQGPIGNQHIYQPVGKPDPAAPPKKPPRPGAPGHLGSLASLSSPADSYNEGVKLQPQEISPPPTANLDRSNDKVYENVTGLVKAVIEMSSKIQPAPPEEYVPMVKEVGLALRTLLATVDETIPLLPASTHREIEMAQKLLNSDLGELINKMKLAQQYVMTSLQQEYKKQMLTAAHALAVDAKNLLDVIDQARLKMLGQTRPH

Molecular target: T1, endogenous Caspr1 in HBMECs (human (endogenous in HBMECs)) (UniProt P78357)
T1 sequence: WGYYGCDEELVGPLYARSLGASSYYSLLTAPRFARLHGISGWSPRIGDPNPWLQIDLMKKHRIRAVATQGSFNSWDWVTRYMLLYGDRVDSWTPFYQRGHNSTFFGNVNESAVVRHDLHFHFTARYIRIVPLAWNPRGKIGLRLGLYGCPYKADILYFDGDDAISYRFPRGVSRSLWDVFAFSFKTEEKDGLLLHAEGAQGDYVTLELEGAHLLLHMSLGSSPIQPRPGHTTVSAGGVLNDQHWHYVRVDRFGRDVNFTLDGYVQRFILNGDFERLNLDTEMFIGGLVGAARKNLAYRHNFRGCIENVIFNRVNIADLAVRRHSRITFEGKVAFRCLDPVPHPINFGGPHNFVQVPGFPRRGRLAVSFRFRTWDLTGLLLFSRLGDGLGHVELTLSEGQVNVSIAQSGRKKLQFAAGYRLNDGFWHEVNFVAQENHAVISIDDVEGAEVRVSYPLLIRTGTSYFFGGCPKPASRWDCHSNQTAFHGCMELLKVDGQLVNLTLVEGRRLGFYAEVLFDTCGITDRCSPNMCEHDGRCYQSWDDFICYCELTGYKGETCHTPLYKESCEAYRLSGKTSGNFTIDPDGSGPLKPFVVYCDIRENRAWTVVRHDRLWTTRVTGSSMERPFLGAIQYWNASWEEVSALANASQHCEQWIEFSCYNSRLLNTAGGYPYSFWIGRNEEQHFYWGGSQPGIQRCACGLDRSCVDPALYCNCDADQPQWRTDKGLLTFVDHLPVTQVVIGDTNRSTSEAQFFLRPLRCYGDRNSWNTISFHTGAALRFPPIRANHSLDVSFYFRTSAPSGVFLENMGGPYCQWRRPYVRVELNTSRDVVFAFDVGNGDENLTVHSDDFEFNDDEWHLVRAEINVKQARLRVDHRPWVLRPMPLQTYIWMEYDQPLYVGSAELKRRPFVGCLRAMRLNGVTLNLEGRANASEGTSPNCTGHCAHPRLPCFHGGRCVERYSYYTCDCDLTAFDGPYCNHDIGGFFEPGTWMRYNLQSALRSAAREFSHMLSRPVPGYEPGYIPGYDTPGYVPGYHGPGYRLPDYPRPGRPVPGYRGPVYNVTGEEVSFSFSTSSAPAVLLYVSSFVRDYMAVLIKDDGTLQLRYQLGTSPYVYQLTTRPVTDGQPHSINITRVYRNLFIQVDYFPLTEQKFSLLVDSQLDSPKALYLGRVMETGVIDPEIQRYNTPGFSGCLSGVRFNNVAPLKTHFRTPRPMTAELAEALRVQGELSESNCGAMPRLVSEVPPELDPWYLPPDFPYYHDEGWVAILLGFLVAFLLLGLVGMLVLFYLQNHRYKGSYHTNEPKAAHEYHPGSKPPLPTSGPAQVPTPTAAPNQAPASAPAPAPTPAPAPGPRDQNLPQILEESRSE
Experiment: affinity purification with mass spectrometry; pulldown experiments followed by mass spectrometry in HBMECs; bait and conditions not told (Supplementary Fig. 4A)

## focal adhesion kinase (FAK), endogenous in HBMECs (from UniProt Q05397 1-1052) (enzyme)
  binding: binds
